Test results reported in patent publication US12209122.
Results are given in words; binding and its absence hold for the method and conditions named. Some entries that bind do so weakly or less than the wild type.

Sequences of proteins named here, by UniProt entry; tags and fusion partners are left off. Residues count along the entry.
UniProt P48094, residues 77-233: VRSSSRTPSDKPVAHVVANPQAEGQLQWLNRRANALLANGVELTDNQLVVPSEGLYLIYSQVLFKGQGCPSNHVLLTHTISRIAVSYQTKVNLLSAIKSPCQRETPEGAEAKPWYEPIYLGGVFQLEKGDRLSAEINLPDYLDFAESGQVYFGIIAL
UniProt P79337, residues 77-233: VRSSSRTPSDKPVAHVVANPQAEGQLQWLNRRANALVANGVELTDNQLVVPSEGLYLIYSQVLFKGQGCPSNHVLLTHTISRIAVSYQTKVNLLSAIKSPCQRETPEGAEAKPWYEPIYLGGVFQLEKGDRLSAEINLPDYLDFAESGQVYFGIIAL

What was measured:
[1] = molecular target: Rhesus monkey TNFα (R&D Systems, Cat. No. 1070-RM-025/CF) (Rhesus monkey (Macaca mulatta)) (UniProt P48094); experiment: L929 assay (SPR nd for this scFv)
[2] = molecular target: recombinant Cynomolgus monkey TNFα (Sino Biological, Cat. No. 90018-CNAE) (Cynomolgus monkey (Macaca fascicularis)) (UniProt P79337); experiment: L929 assay (SPR nd for this scFv)

binding [1]: binds
binding [2]: binds
B1: humanized scFv 16-22-H05-sc04 (CDR grafted light chain, structural grafted heavy chain, CDR/STR) (scFv)
scFv: MDIQMTQSPSSLSASVGDRVTITCQASQSIFSGLAWYQQKPGKAPKLLIYGASKLASGVPSRFSGSGSGTEFTLTISGLQPADFATYYCQSYYYSSSSSDGSYAFGGGTKLTVLGGGGGSGGGGSGGGGSGGGGSEVQLVESGGGLVQPGGSLRLSCKASGIDFNNYGIGWVRQAPGKGLEWITYIYPGFAITNFANSVKGRFTISSDNSKNTVYLQMNSLRAEDTAVYYCARDPVYATSSGYFDLWGQGTLVTVSS
